Results deposited as PubChem BioAssay AID1053208 (Peter MacCallum Cancer Centre, 2014).

Purpose: 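Genes whose silencing cuts survival of bone tumour cells only with doxorubicin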 (primary screen)
Cell system: mouse osteosarcoma cells, early-passage culture from an engineered mouse model of fibroblastic bone tumour
Reagents: siRNA pool against mouse genes, 40 nM
Timing: about 120 h (48 h before drug, then 72 h with drug)
Treatment: doxorubicin 100 nM for 72 h, roughly 30-40% inhibitory dose
Detection: 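Viability read as ATP luminescence after 72 h of 100 nM doxorubicin or none, duplicate wells averaged, scaled to non-targeting siRNA, then expressed as robust z-scores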
Direction: viability z-score with doxorubicin: higher = more viable cells under doxorubicin; viability z-score without drug: higher = more viable cells with knock-down alone
Hit rule: 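a pool counts as active when its viability z-score with doxorubicin is -2 or below and its z-score without drug lies between -2 and 2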
In all, the deposit lists about 17,000 reagents; below is a part drawn at random. Over the whole deposit, 788 (4.7%) got an active call. 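Calls rest on z-score classes alone; an extra cut-off of viability at most 70% of control was not applied to them.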 The numbers tell different reagents against one gene apart. Not all columns of the deposit are shown.

After knock-down of Gpr37, the record shows combined z-score class no change with or without drug; viability z-score with doxorubicin -0.22; viability z-score without drug 0.17; inactive.
For H2-T3 the deposit lists combined z-score class no change with or without drug; viability z-score with doxorubicin 0; viability z-score without drug 0.17; inactive.
After knock-down of Dcaf13, the record shows combined z-score class no change with or without drug; viability z-score with doxorubicin -0.22; viability z-score without drug -1.18; inactive.
Knock-down of Pkia came out at: combined z-score class high cell count without drug only; viability z-score with doxorubicin 0.45; viability z-score without drug 2.36; inactive.
Against Ckb, the values are combined z-score class no change with or without drug; viability z-score with doxorubicin -0.45; viability z-score without drug -1.52; inactive.
Against Aldoa the deposit lists combined z-score class no change with or without drug; viability z-score with doxorubicin -0.22; viability z-score without drug 0.84; inactive.
Gng2 gave combined z-score class no change with or without drug; viability z-score with doxorubicin -0.22; viability z-score without drug -0.17; inactive.
Knock-down of Klra16 resulted in: combined z-score class no change with or without drug; viability z-score with doxorubicin 0.56; viability z-score without drug 1.52; inactive.
Mrpl49 gave combined z-score class no change with or without drug; viability z-score with doxorubicin 0.67; viability z-score without drug -1.85; inactive.
For Ifitm1, the values are combined z-score class no change with or without drug; viability z-score with doxorubicin 0.11; viability z-score without drug 1.18; inactive.
Knock-down of Prim2 gave: combined z-score class no change with or without drug; viability z-score with doxorubicin -1.12; viability z-score without drug -0.51; inactive.
Silencing of Ehmt1 came out at: combined z-score class low cell count with doxorubicin only; viability z-score with doxorubicin -2.25; viability z-score without drug 1.85; active.
Silencing of Tsnax resulted in: combined z-score class no change with or without drug; viability z-score with doxorubicin -1.8; viability z-score without drug -1.52; inactive.
Anxa2 gave combined z-score class no change with or without drug; viability z-score with doxorubicin -0.22; viability z-score without drug 0.67; inactive.
After knock-down of Cel the results were combined z-score class no change with or without drug; viability z-score with doxorubicin 0.79; viability z-score without drug 0.84; inactive.
Creb5 #1 showed combined z-score class no change with or without drug; viability z-score with doxorubicin 0.11; viability z-score without drug -0.17; inactive.
Creb5 #2 gave combined z-score class no change with or without drug; viability z-score with doxorubicin -0.67; viability z-score without drug -0.17; inactive.
With knock-down of Akap9 the results were combined z-score class no change with or without drug; viability z-score with doxorubicin 0.11; viability z-score without drug 1.52; inactive.
Against Gas5, the values are combined z-score class low cell count with doxorubicin only; viability z-score with doxorubicin -2.02; viability z-score without drug -0.84; active.

2 entries from above, set out differently.
Mrpl49
- combined z-score class: no change with or without drug
- viability z-score with doxorubicin: 0.67
- viability z-score without drug: -1.85
- call: inactive

Ifitm1
- combined z-score class: no change with or without drug
- viability z-score with doxorubicin: 0.11
- viability z-score without drug: 1.18
- call: inactive
